From the supplement of paper PMC10338343
± gives the standard deviation. This is a selection; strong and weak results do not stand in their true shares. The uncertainty is large for many entries.

How the values were obtained:
[1] = tested on: MILI (PIWIL2) piRISC loaded with L1MC piRNA (26 nt); experiment: pre-steady-state target cleavage rate (min^-1); MIWI and MILI are mouse PIWI proteins and EfPiwi is from a freshwater sponge; tags in brackets are library labels; higher = faster piRNA-guided slicing of the target; details: guide: L1MC piRNA 5'p-UAACUAAAUACUAUGCAAGCUGUAGG
Outline: (§1)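 The pre-steady-state cleavage rate came from a burst-and-steady-state fit to pooled data from three Cleave-'n-Seq trials, in which uncleaved targets were sequenced and normalised to depth and to weakly complementary targets. Each reaction held 0.1 nM transcribed, DNA-blocked target RNA library and 1 nM active affinity-purified piRISC carrying one synthetic guide, with or without 500 nM GTSF1 partner protein, in HEPES–potassium acetate buffer at 33 °C for 0–8 or 0–960 min. k3 was capped at 0.0001 min^-1.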

[2] = tested on: MIWI (PIWIL1) piRISC loaded with L1MC piRNA (30 nt); experiment: as above; details: guide: L1MC piRNA 5'p-UAACUAAAUACUAUGCAAGCUGUAGGUCCU
Outline: as §1

[3] = auxiliary factor: none (no GTSF1)
[4] = auxiliary factor: 500 nM mouse GTSF1

Sequence	pre-steady-state target cleavage rate [1, 3]	pre-steady-state target cleavage rate [2, 4]	pre-steady-state target cleavage rate [2, 3]	pre-steady-state target cleavage rate [1, 4]
UCCUGGAUGUCGAACGUAAGUAUUUCGUUA	0.000228 ± 0.016	0.00024 ± 0.02		
UCCUCCUACAGCUUGCAUAGUUAAUUCAAA	0.00124 ± 0.0056		0.000256 ± 0.011	
UCCUCCUACAGCUUGCAAUGUAUUUACAAA	0.00095 ± 0.0055		0.000983 ± 0.0086	
UCCUGCUACAGCUUGGUAAGUAUUUACAAA	0.00074 ± 0.0067		0.000245 ± 0.013	
UCCUGGAUGUCGAACGUAUCUAUUUAGUUU [g2:g10:cont:t1U]	0.000117 ± 0.018	0.000179 ± 0.023		
UCCUGGAUGUCGAACGUAAGAUUUUAGUUA	0.00011 ± 0.025		0.000295 ± 0.012	
UCCUGGAACAGCUACGAUAGUAUUUAGUUA	0.00152 ± 0.004		0.000453 ± 0.007	
UCCUGGAUGUCCUUGCAUUCAUAAAUCAAA [g13:g19:cont:t1A]	0.000444 ± 0.0089		0.000622 ± 0.0084	
UCCUGGAUGUCCUUGCAUAGAAUUUACUUA	0.001 ± 0.0071		0.00123 ± 0.0044	
UCCUGCUACAGCUUGCAAUCUAUUUAGUAA	0.000902 ± 0.0042		0.00184 ± 0.0038	
UCCUGGAUGUCGAACGUAAGUAUUUAUGUUA	0.000274 ± 0.015		0.000238 ± 0.029	
UCCUGGAUGAGCUUGCAAUCAUAAAUCAAA [g14:g21:cont:t1A]	0.000276 ± 0.019		0.000303 ± 0.019	
UCCUCCUACACGAUGCAUAGUAUUUACAAA	0.000892 ± 0.0064		0.000779 ± 0.0094	
UCCUGGAUGUCGAACGUAUCUAAAAAGUUA	0.000217 ± 0.018		0.000103 ± 0.021	
UCCUGGAUGUCGAACCAUAGUAAAAAGUUA	< 0.0001		0.000222 ± 0.031	
UCCUGGAUGUCGAUGCAUAGUUUUUAGUAA	0.00239 ± 0.0028		0.000644 ± 0.007	
UCCUGGAUGUCGAAGCAUUGUUUUUAGUUA		0.000392 ± 0.033		0.000411 ± 0.032
UCCUGCUACAGCUUGCAUUCUAUUUAGAAA	0.000613 ± 0.0077		0.00101 ± 0.0071	
UCCUGCUACAGCUUGCAUUGUAUUUACAAA	0.000893 ± 0.006		0.00137 ± 0.0043	
UCCUGGAUGUCGAACCAUAGUUUUUAGUUA	0.000249 ± 0.016		0.000305 ± 0.02	
UCCUGCUACAGCUUGCAUUCAUAAAUCAAA [g13:g25:cont:t1A]	0.000134 ± 0.03		0.000559 ± 0.017	
UCCUGGAUGUCGAAGCAUAGUAUUUCAGUUA	0.000924 ± 0.0055		0.000721 ± 0.0086	
UCCUGGAUCAGCUUGCAUAGUAUAAAGAAA	0.00137 ± 0.0039		0.00193 ± 0.0035	
UCCUGCUACAGCUUGCAAAGUAUUUUCAAA	0.00145 ± 0.0036		0.00274 ± 0.0036	
UCCUGGUACAGCUUGCAUAGAUAUUUCAAA	0.000809 ± 0.011		0.000213 ± 0.023	
UCCUGGAUGUCGAUGCAUAGUAUAAAGUUA	0.00215 ± 0.0031		0.000713 ± 0.0089	

Rewritten with bars between the fields: entries from further up.
Sequence | pre-steady-state target cleavage rate [1, 3] | pre-steady-state target cleavage rate [2, 4] | pre-steady-state target cleavage rate [2, 3] | pre-steady-state target cleavage rate [1, 4]
UCCUGGAUGUCCUUGCAUAGAAUUUACUUA | 0.001 ± 0.0071 |  | 0.00123 ± 0.0044 | 
UCCUGGAUGUCGAACGUAAGUAUUUAUGUUA | 0.000274 ± 0.015 |  | 0.000238 ± 0.029 | 
UCCUGGAUGUCGAACGUAUCUAAAAAGUUA | 0.000217 ± 0.018 |  | 0.000103 ± 0.021 | 

Further entries follow:

Sequence	pre-steady-state target cleavage rate [1, 3]	pre-steady-state target cleavage rate [2, 4]	pre-steady-state target cleavage rate [2, 3]	pre-steady-state target cleavage rate [1, 4]
UCCUGCUACAGCUUGCAUAGUAUUAUGAAA	0.00108 ± 0.0054		0.00131 ± 0.0054	
UCCUGGAUGUCGAAGCAUAGUUUUAAGUUA	0.000753 ± 0.007		0.000598 ± 0.0083	
UCCUGGAUGUCGAACGAUAGUAUUUAGUUA		0.000171 ± 0.015		0.000219 ± 0.011
UCCUGGUACAGCUUGCAAUCAUAAAUCAAA [g14:g24:cont:t1A]	0.000708 ± 0.011		0.00123 ± 0.0079	
UCCUGGAUCAGCUUGCAUAGUUAAUACAAA	0.00114 ± 0.004		0.00113 ± 0.0046	
UCCUGGAUGUGCUUCGAUAGUAUUUAGAAA	0.000618 ± 0.0088		0.000753 ± 0.0089	
UCCUGGAUCAGCUUGCAUAGAUAAAUCAAA [g11:g22:cont:t1A]	0.000259 ± 0.0084		0.000283 ± 0.011	
UCCUGGAUGUGCUUGCAUAGUUAAUAGUAA	0.000737 ± 0.0087		0.00101 ± 0.0078	
UCCUGGAUGUCCUUCGUUAGUAUUUAGUAA	0.000415 ± 0.01	0.000956 ± 0.013		
UCCUGGAUGUCGAAGGAUAGAAUUUAGUUA	0.00015 ± 0.027		0.000359 ± 0.016	
UCCUGGAUGUCCUUGCAUAGUAUUAAGUAA	0.00132 ± 0.0048		0.00113 ± 0.0062	
UCCUGGAUGUCCUUGUCAUAGUAUUUAGUUA	0.00173 ± 0.0039		0.00066 ± 0.013	
UCCUGGAUGUCGAAGCAUAAUAUUUAGUUA	0.00056 ± 0.008		0.000208 ± 0.0099	
UCCUGGAUGUCGAACGUAUCGAUUUAGUUA			0.000159 ± 0.023	0.000113 ± 0.056
UCCUGGUACAGCUUGCAUAGUUAUUAGAAA	0.000867 ± 0.0078		0.00141 ± 0.0053	
UCCUGGAUCAGCUUCGUUAGUAUUUAGAAA	0.000245 ± 0.023		0.000746 ± 0.0062	
UCCUGGAUCAGCUACGAUAGUAUUUACAAA	0.000187 ± 0.025		0.000282 ± 0.012	
UCCUGGUACAGCUUGCAUAGAUAUUAGAAA	0.000317 ± 0.022		0.000227 ± 0.02	
UCCUCCUACAGCUUGCUAUGUAUUUACAAA	0.00076 ± 0.0052		0.00046 ± 0.01	
UCCUGGAUCAGCUUGCAUAGUUAAAUCAAA [g10:g22:cont:t1A]	0.000969 ± 0.0057		0.000907 ± 0.0065	
UCCUGGAUGUCGAACGUUAGUAUUUCGUUA	< 0.0001		0.000101 ± 0.058	
UCCUGCUACAGCUUGCAUACAAUUUAGUAA	0.000933 ± 0.0061		0.00133 ± 0.0067	
UCCUCCUACAGCUAGCAUAGUAUUUUCAAA	0.00131 ± 0.0032		0.000385 ± 0.0059	
UCCUGGAUGUCGAACCAUAGUAUUUGUUA	0.000219 ± 0.025		0.000335 ± 0.013	
UCCUGGUACAGCUUGCAAUGUAUUUUCAAA	0.00107 ± 0.0076		0.000894 ± 0.0086	
UCCUGGAUGUCGAACGUAAGUAUUUAGUUC [g2:g12:cont:t1C]	< 0.0001	0.000109 ± 0.05		
